Results are given in words; binding and its absence hold for the method and conditions named. In cells and extracts the contact can be indirect. Some binding calls cover weakened binding; strength is not graded here.

Protein sequences, listed by entry. Tags and fused reporters are not part of them.
UniProt P49792: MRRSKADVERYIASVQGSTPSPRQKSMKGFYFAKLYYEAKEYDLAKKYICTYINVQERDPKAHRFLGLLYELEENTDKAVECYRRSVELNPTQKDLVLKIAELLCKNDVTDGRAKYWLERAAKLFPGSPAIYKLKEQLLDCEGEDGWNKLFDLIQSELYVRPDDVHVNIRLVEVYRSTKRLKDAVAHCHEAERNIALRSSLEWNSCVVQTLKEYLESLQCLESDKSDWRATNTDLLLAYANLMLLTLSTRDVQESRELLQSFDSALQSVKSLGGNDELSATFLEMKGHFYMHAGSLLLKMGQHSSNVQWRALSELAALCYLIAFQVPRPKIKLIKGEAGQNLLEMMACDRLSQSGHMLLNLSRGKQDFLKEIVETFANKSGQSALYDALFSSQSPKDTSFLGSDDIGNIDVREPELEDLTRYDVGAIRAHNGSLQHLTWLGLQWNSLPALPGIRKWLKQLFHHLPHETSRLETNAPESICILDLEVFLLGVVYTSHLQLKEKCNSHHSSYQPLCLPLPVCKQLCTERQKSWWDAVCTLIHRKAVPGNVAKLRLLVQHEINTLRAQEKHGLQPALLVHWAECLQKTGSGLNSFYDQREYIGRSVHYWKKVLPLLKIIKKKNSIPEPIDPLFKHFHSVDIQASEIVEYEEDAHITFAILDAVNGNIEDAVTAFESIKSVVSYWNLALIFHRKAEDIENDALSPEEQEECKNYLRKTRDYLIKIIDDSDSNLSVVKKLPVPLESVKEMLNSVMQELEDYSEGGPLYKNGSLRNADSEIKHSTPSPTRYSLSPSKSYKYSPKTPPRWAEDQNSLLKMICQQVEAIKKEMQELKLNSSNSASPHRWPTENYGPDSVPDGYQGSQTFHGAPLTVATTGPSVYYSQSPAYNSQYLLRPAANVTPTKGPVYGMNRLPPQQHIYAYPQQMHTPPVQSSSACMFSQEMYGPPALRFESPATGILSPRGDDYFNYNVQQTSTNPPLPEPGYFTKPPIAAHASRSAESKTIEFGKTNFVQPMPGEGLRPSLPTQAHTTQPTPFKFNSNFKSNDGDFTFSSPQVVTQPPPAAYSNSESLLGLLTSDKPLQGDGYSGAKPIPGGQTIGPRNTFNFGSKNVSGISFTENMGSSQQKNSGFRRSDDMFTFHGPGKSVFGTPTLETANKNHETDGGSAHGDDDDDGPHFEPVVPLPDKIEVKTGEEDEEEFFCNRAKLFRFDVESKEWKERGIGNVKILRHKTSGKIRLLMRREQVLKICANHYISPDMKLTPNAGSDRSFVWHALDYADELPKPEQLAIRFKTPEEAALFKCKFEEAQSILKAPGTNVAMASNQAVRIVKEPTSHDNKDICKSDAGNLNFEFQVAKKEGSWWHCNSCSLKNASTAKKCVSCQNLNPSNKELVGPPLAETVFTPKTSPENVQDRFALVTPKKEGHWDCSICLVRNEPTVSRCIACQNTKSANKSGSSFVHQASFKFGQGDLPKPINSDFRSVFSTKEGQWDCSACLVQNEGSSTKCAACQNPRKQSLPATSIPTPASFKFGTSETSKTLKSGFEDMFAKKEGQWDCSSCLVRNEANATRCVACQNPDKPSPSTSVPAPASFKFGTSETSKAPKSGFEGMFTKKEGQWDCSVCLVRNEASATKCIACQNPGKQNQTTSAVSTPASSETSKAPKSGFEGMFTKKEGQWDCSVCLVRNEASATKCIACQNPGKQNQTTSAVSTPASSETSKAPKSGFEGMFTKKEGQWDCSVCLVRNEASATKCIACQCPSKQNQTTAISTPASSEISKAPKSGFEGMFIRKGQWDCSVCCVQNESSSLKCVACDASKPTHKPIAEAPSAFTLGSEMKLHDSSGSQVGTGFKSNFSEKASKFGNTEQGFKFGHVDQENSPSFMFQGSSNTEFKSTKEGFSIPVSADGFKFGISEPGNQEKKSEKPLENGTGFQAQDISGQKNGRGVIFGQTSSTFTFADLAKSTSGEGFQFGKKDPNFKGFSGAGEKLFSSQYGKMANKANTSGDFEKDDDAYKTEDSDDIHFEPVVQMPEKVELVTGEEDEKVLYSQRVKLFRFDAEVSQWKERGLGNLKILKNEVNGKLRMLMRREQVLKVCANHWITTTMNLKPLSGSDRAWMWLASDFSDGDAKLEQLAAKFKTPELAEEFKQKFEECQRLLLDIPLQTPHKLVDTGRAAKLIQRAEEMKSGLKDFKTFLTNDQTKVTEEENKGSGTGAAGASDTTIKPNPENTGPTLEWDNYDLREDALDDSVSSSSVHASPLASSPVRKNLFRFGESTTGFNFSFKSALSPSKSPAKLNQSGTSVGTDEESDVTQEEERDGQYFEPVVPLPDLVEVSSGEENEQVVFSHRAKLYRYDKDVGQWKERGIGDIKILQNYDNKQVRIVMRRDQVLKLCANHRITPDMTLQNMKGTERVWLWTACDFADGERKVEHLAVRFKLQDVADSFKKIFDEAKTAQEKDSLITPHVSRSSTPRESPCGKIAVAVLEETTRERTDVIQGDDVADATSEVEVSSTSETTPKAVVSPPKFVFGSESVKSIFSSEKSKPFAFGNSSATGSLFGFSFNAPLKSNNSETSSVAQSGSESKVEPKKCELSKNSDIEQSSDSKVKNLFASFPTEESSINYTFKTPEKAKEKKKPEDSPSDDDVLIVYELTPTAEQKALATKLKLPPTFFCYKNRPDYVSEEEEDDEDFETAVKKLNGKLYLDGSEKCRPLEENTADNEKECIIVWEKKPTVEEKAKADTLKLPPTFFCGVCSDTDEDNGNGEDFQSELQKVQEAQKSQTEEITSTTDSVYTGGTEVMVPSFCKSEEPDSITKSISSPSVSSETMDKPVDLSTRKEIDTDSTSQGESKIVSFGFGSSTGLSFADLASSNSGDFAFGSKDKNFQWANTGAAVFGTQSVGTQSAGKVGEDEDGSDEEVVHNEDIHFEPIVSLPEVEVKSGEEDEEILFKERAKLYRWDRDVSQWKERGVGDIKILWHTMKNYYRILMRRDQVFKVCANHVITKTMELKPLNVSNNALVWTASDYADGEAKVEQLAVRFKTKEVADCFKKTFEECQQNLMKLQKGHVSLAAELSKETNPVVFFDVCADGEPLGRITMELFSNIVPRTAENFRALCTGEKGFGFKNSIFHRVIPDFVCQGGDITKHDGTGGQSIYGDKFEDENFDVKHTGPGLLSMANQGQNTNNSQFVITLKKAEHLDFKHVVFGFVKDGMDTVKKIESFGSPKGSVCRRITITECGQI

Experimental findings from PMC3930611 are described below.

The target in the test is Nup358 (endogenous, immunoprecipitated with an antibody against Nup358) (human (endogenous in HeLa)) (UniProt P49792). Put plainly: co-IP; immunoprecipitation with an antibody against Nup358; tested for importin β and importin 7; data not shown.

For “importin β (endogenous, HeLa) (from UniProt Q14974-1 1-876)”, the binding result was “binds”.
